The values that follow are results of earlier work, collected in patent publication US10632115B2, “Use of a statin compound as local drug for treating obesity, diabetes, hypertension and hyperlipemia” (Peking University Third Hospital, priority 2015, dated 2020).

The conditions of data set [1]: oral, high dose atorvastatin 80 mg; cited from earlier work.
In data set [2] the test system is non-diabetic patients with hypercholesterolemia. The note with it: oral administration; cited from earlier work.

As to `CC(C)c1c(C(=O)Nc2ccccc2)c(-c2ccccc2)c(-c2ccc(F)cc2)n1CC[C@@H](O)C[C@@H](O)CC(=O)O` [atorvastatin], the “effect on glucose metabolism” value is on record as “detrimental” in data set [1] and “opposite” in data set [2].
